PubChem BioAssay AID1508600 (Functional Genomics Laboratory (NCATS/FGL), 2020)
The campaign covered roughly 53,000 sequences. About 3,700 (7%) were called active.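 Rule for the calls: active = gene knockdowns whose robust z-score for IL-1 alpha signal is at least 2 or at most -2, so actives lie on both sides; inactive = the rest.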 Some of the results follow.

Assay: Components of the Cytosolic LPS Sensing Pathway: Gene Identification via Genome-wide siRNA Screen;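 note: robust z of the log signal after scaling to non-targeting control siRNA wells of the plate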
Settings: RAW264.7 macrophages, IL-1a HTRF, actives lie on both sides, screened at 100 nM (by protocol), cells primed 5 h with Pam3CSK4 first
Outline: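 Read-out: IL-1a HTRF on supernatant, divided by plate negative-control median ×100, log-transformed and converted to robust z-score. Cells were RAW264.7 given 100 nM siRNA, Pam3CSK4-primed 5 hours, then LipidA-transfected 24 hour.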
For CCGUAGCGAGACUUACAUCTT against Asic3, the z-score was inactive: 1.88. With GCCUGACUCUAGCUGUCAATT against Mzb1 the z-score was inactive: -1.02. For CGAUCGUGUGGGUUAUAUCTT against Htr1f, the z-score was inactive: 1.17. With GCAGUACUAAACCAGAUAUTT against Ncbp3 the z-score was inactive: 1.9. With GCUAAAGCAGCUCGUCUGGTT against Psmd11 the z-score was inactive: -0.368. With GGCAACUGUUGUAAAUCAATT against Veph1 the z-score was inactive: -1.01. In the case of GUCCAUACUUUGGUUUUCCTT against Plekhh1, the z-score is reported as inactive: -0.195. In the case of GGUUCAUCCAACUUUCAAGTT against Stac3, the z-score is reported as inactive: 0.587. With GGCUUGGCUAUGAAAAGUATT against Rusc2 the z-score was inactive: -0.794. For GCCUAUGAGGAACUACCUATT against Pga5, the z-score was inactive: 1.23. For CGAACUUGUACAGAAGAAUTT against Slfn3, the z-score was inactive: -0.311. For CCAUGUGUCAAACUACCGGTT against Rbmx2, the z-score was active: 7.02. With CCGGCUUAUGCUCAACUUCTT against Bpifb1 the z-score was inactive: 0.29. For GGCUCGUUUGUACGACUUCTT against Pigm, the z-score was inactive: 1.2. With GGAGUCUGCUGGUUUAGUGTT against Fmc1 the z-score was inactive: 0.0551. In the case of GGGUUUCUAUGAAGAGAUCTT against Fhod1, the z-score is reported as inactive: -0.624. With GCUCCGGAAAUUGGCAUCATT against Ppp1r10 the z-score was inactive: -1.5. With CGUGGUUAAGGACUUGUUUTT against Nek7 the z-score was inactive: 0.0862. In the case of CCAGCUCUCGAUUCCAUCATT against Fem1a, the z-score is reported as inactive: 0.615. In the case of GGAGAACAAGUGUCUGCUUTT against Tspan9, the z-score is reported as inactive: -0.196. For CGAGUUGCAGGAUUUCAAGTT against Slit3, the z-score was inactive: 0.512. For GCGAAUUACUAUGUACCUATT against Sqor, the z-score was inactive: 1.75. For GCUUACAUGAACAUAUAGUTT against Tiparp, the z-score was inactive: -0.402. In the case of GGAAUUUGUGAAAAGAAGUTT against Aldh1a2, the z-score is reported as inactive: -0.923. For GGUCCUGAAGAUACAUAUUTT against Taf2, the z-score was active: -2.42. For GCAAAUGUAUUAUGUCCUUTT against Gm5478, the z-score was inactive: 0.0907. In the case of CCACCACAACUAAGUCAGATT against Ccdc90b, the z-score is reported as inactive: -1.34. With GGAUGACGUACGCUUCAAGTT against Cercam the z-score was inactive: 0.563. With CCUAUGGGUGUCUAUACCUTT against Clrn3 the z-score was inactive: 0.0264. For GGAGACACAACCAACAUUATT against Cnr1, the z-score was inactive: 0.564. For GGAUUCAUUUCAUACCUUGTT against Rab31, the z-score was inactive: -0.335. With CGGGCAUGAUGAAUCGAUGTT against Ldhd the z-score was inactive: 1.83. With GGAAUCUUUGUCCGUGAGCTT against Prx the z-score was inactive: -0.516. With GGCUUGAACACAAGAAAGCTT against Golim4 the z-score was inactive: -0.778. In the case of GCCGCUACUCUCCUCAAAATT against Card19, the z-score is reported as inactive: -0.329. In the case of GCCAAAGAGCAUAUCGAUUTT against Spopl, the z-score is reported as inactive: 0.889. With GGCUAAGAAGGAGAUUAAATT against Gas2 the z-score was inactive: 0.0847. With GGAAAGAUGAGUUUCUGUUTT against Arf3 the z-score was inactive: 1.48. For CGAAGCUCUAAUUUCAUGUTT against Pik3c3, the z-score was inactive: 0.456. For GCUGCACAUUGUCCAUUAUTT against Car12, the z-score was active: 2.3. With CCAUUCCAAAGCACUCUUATT against Cerkl the z-score was inactive: 0.822. For ACUACUCAGACAUCUCUUGTT against Capn11, the z-score was inactive: 0.143. For GGAAUUCAUUAGAAACCAGTT against Psmc1, the z-score was inactive: -1.83. With GGCCUUUAUCCUGAGGCUATT against Ctu2 the z-score was inactive: -1.75. In the case of GGACUGGAGUGGUUUGUCUTT against Atp9b, the z-score is reported as inactive: -1.11. For GGAGAAAAACAUCAUUGAATT against Reck, the z-score was inactive: -0.102. For GCGUGAAUGAGGGAUCAGATT against Nphs1, the z-score was inactive: -0.0184. With GGUUAAAUGCCCGCCAACATT against Eif2ak4 the z-score was inactive: -0.876. For CGGCAUCAUUCAUUCAUUATT against Pacrgl, the z-score was active: 2.01. For CGGCUGAAGACUGAAAACGTT against Hnrnpl, the z-score was inactive: 0.221. For GGUUUAAGAUUGAGUAUUCTT against Eid1, the z-score was inactive: 0.602. With GGUUCAGCAUUUUAAAGUGTT against Ago3 the z-score was inactive: 1.05. With CCUUAUGAGUCUUACGACUTT against Zfp326 the z-score was inactive: 1.15. For CCAUCUGUCUUCUAUUUCATT against Echdc1, the z-score was inactive: -0.702. With GGAAGUCACUCCUCUUGUUTT against Ralgapa1 the z-score was inactive: -0.49. In the case of GGCCUUACUAAAGAACCGCTT against Ipo4, the z-score is reported as inactive: 0.931. For GCACAGAUCUUUUUGUUCUTT against Olfr297, the z-score was inactive: -1.11. In the case of GCAAAGGACCUAAUUUAUUTT against Ehd4, the z-score is reported as inactive: 1.13. With CGACAUGAUUACUAUUCUCTT against Eif4ebp1 the z-score was inactive: -0.39. For GAAGAAGCCUACAGUGACCTT against Zfp644, the z-score was inactive: 0.945. For CCCAGAAGGACGGCACUAGTT against H2-DMb2, the z-score was inactive: 0.265. For GGCUGUUUGCCUGUAUUCUTT against Olfr259, the z-score was inactive: -1.34. For GGUACCAGAACACAAGACCTT against Vkorc1, the z-score was inactive: -0.548. In the case of GCAUUUUGUGAGCGUACAATT against Itgal, the z-score is reported as inactive: 1.18. In the case of GGAAGCAGAGAGUUAGAAGTT against Ndel1, the z-score is reported as inactive: 0.297. For CCCUGUUCCAAUCCGGUUCTT against Selenov, the z-score was inactive: -0.999. In the case of GCAACAGACAUUGCCAUCATT against Olfr243, the z-score is reported as inactive: -1.32. For GGAAAGCUACAUGUUGCUUTT against Prkacb, the z-score was inactive: -0.237. With GGUCCAGUUCCUUGACAUCTT against Ifit1 the z-score was inactive: -1.1.
